The structures given here were assigned with low confidence; some may be wrong.
Key:
Wee1 protein = Wee1 protein (Homo sapiens, UniProt P30291); experiment: Binding of compound to Wee1 protein and Tracer 178 by TR-FRET; conditions: read-out: IC50 measured value, inhibitory activity against Wee1 kinase
H1299 cells = experiment: Anti-proliferative effect by Cell Titer-Glo, H1299; format: cell-based; conditions: read-out: IC50 measured value H1299, 3 days
Description: (§1) Compound solutions of different concentration gradients were prepared. DMSO was dissolved to a concentration of 10 mM test compound and 10 mM reference compound AZD1775, and the compounds were serially diluted in culture medium for a total of 9 dose points, with 2 parallel replicates set at each concentration. The cell growth group without compound was used as a positive control (maximum signal control) and the medium was used as a negative control (minimum signal control), while ensuring that the final level of DMSO in each reaction well was 0.2%. […]
(§2) The 384-well plates were removed from the cell incubator and allowed to equilibrate for 1 h to room temperature. 25 ul of Cell Titer-Glo assay was added to each well, lysed on a shaker for 2 min and then read out (Luminescence) using a BMG PHERAStar after 10 min incubation. Calculate the inhibition rate from the luminescence signal: first calculate the average of the positive control (maximum signal control) and the negative control (minimum signal control).
(§3) [formula] to calculate the rate of inhibition of the cells by different concentrations of the compounds. The IC50 of the compound on cell activity inhibition was calculated by fitting a log(inhibitor) vs. response-Variable slope model to GraphPad Prism 6. […]

The chains behind the UniProt entries cited, without tags or fusion partners.
UniProt P30291, whole entry: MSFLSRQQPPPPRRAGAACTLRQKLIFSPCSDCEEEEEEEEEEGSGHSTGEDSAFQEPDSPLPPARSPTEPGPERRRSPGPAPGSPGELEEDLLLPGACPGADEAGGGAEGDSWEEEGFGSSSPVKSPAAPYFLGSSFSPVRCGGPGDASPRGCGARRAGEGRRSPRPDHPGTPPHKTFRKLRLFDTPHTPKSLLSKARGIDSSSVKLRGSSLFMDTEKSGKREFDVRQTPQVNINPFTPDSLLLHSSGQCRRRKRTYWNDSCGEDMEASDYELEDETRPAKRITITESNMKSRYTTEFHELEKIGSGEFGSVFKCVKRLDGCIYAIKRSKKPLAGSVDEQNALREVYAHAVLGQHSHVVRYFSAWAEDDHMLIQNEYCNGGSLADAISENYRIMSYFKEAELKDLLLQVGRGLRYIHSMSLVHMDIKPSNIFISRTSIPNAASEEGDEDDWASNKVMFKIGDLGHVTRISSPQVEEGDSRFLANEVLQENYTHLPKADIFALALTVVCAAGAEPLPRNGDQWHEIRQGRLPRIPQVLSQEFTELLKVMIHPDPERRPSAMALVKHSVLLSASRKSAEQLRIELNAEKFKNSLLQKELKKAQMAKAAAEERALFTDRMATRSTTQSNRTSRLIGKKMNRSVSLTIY

MIA Paca-2 cells = experiment: Anti-proliferative effect by Cell Titer-Glo, MIA Paca-2; format: cell-based; conditions: read-out: IC50 measured value MIA Paca-2, 3 days
Description: as §1, §2, §3

## CN1Cc2cc(Nc3ncc4cnn(-c5cccc(N=S(C)(C)=O)n5)c4n3)ccc2C(C)(C)C1
Wee1 protein
  IC50: 1 to 10 nM
H1299 cells
  IC50: 1000 to 5000 nM
MIA Paca-2 cells
  IC50: 100 to 1000 nM

Source: patent US12649748B2, “Wee1 inhibitor and use thereof” (JIANGSU TASLY DIYI PHARMACEUTICAL CO., LTD., priority 2021, dated 2026)
